# Test results: the supplement of paper PMC3334620
# Over roughly 33,000 sequences, “E-score (-0.5 to 0.5)” has its median near -0.016; the highest 2% begin near 0.3. Some of the results follow.
# Biological target: T1, Yer184c (UniProt P39961)
# T1 sequence: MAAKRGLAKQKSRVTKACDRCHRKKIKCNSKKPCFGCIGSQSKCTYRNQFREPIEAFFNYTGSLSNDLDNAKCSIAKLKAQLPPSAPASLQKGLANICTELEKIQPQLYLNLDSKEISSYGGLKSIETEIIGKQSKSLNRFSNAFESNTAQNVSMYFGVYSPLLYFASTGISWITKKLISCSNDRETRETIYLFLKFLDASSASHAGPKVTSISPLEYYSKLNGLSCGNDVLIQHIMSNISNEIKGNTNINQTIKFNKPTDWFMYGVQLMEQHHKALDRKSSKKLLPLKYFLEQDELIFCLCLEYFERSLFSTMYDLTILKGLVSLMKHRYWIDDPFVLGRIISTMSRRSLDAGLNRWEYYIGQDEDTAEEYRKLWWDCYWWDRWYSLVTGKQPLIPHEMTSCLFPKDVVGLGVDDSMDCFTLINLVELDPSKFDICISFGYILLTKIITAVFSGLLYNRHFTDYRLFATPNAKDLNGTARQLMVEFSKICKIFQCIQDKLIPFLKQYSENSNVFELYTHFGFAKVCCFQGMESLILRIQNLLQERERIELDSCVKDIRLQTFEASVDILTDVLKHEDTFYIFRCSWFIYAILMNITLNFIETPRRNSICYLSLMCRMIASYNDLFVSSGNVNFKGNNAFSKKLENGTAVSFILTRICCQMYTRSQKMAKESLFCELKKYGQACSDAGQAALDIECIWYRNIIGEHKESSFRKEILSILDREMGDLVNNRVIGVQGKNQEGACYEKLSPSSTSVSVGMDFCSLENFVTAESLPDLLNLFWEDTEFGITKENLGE
# Experiment: PBM E-score (8-mer binding enrichment) (E-score (-0.5 to 0.5)); higher = stronger / more preferred TF binding
# Conditions: protein concentration: 100 nM; construct: GST-full length
# Procedure, shortened: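 Detection of bound protein used fluorescent anti-GST, with scans normalised by masliner. The proteins were GST-tagged yeast transcription factors applied at about 100-200 nM to universal all-10-mer Agilent arrays made double-stranded by primer extension. Each ungapped eight-base word, pooled with its reverse complement, was scored with an E-score from the Universal PBM Analysis Suite.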
row,Sequence,PBM E-score
1,AATTGCGT,0.126
2,CCTGAATA,0.0707
3,CACACAGC,-0.0282
4,AATATTGC,0.274
5,AATGACGA,0.0833
6,AGCGCTCA,0.0722
7,CCTTGTCA,-0.237
8,AAATGTGA,-0.068
9,CGAATTCG,0.18
10,GAACGCGA,-0.049
11,AGAGCAGA,-0.0129
12,ATATGTAC,0.139
13,CGCGCACC,0.00887
14,ACCGTATA,-0.129
15,AGACGGAT,0.195
16,AAGCCGCT,0.0949
17,ATAGAAAA,-0.0185
18,CAGAGGCA,-0.124
19,TTAAGAAA,0.069
20,AAAAATAA,0.237
21,CCCGGTCC,0.0252
22,CACGTGGG,-0.235
23,AGAAAATA,0.231
24,GCTCAAGC,-0.0698
25,GGACGCTA,-0.185

row,Sequence,PBM E-score
1,AAGCTTGC,-0.0849
2,ACCGCGAC,-0.0671
3,CCGTAGAA,0.113
4,GGCCCATA,-0.169
5,AGGTAGAG,-0.139
6,CGGCAGTA,0.14
7,ACAGCGAC,-0.227
8,ATTCCCGG,0.384
9,ACTTGGGC,-0.247
10,CCTAAGAG,-0.152
11,AGAGAACC,-0.0986
12,TGGCCCCA,-0.35
13,ACCTGCCT,-0.12
14,CTAGATAG,-0.0568
15,ATACGGAA,0.412
16,AGTCACGC,-0.222
17,CCGATCGA,0.118
18,TCCCAGGA,-0.317
19,GATAGAAA,0.0417
20,GAATTCCA,0.193
21,AAATCTTC,0.0721
22,AGGCAGAG,-0.124
23,AACTATTC,-0.0137
24,GGTGGTCA,-0.152
25,ACTCCACC,-0.145

row,Sequence,PBM E-score
1,ATCTTTTC,0.0824
2,TGTGGAAA,0.1
3,AGAGAACA,0.0881
4,ACATAGCC,0.0675
5,ATTCCCGC,0.3
6,CCCGCTGA,-0.196
7,CCCTATTC,-0.152
8,AGGAGCCG,0.0636
9,CACATTCC,-0.157
10,CCCATAGG,-0.0316
11,GTATCAAA,0.112
12,CCTTGGCA,-0.254
13,GTTATCGA,0.0441
14,ACTTAAAA,0.205
15,ATGCGCGC,0.0459
16,ACGGTTGC,-0.129
17,AAGGGGCC,-0.282
18,CGGCTATC,0.285
19,CTGGCCAA,-0.0884
20,CACCTCGC,-0.0773
21,AGTTATTG,0.0382
22,CAAGCGTA,-0.216
23,AAGCCCTA,-0.0474
24,CCCTGCAA,-0.13
25,CTTAACAC,-0.11

row,Sequence,PBM E-score
1,ACGGGAGT,0.126
2,ACCCGCTA,-0.0558
3,AGAAGTAA,0.161
4,ATTCTGTA,0.161
5,CGACACCC,-0.155
6,CATGTCCC,-0.151
7,CGCATCTA,0.112
8,AAATTATG,0.108
9,AAGTGGTC,0.0156
10,CTGCCATC,-0.0255
11,GAGGTACC,-0.109
12,AGTTTGGG,0.0469
13,AGCGGATC,0.204
14,AATCAGTG,-0.0342
15,AGCAAAAC,0.0225
16,AATGATGC,0.0595
17,CCGTTAAG,-0.0245
18,GATCAGCC,-0.105
19,TGCAATAA,0.0778
20,CGGATTGA,0.218
21,AACGTGAC,-0.151
22,ATTGACGG,0.0836
23,CGGTAGAA,-0.00037
24,ATGCTTTA,-0.15
25,TCCTGCGA,0.00447

row,Sequence,PBM E-score
1,GGCGCGCA,0.0179
2,CGGAGGTA,0.077
3,AGAGGTCG,-0.072
4,AGCTTTTC,0.0452
5,AGGTTACG,-0.148
6,CTTGTAAC,0.215
7,CTCGAGTA,0.0674
8,CTATAAGA,-0.0299
9,GCCCTTAC,-0.121
10,ACCACCAG,-0.125
11,CAGGGGCC,-0.198
12,ACTCGAGA,0.0599
13,GCGGGCAC,0.0779
14,CTCCTCAG,-0.212
15,TCCGTCGA,0.176
16,GTCATCGA,-0.0808
17,TCGAAACA,0.266
18,CTTCCAGC,-0.198
19,CAGTTTAA,-0.0275
20,ACCTGGGA,-0.14
21,CCGCAGTA,-0.0771
22,ACATTAGT,-0.0735
23,GTAAGCAA,-0.014
24,TACGAGGA,-0.109
25,AATACTTA,0.0866

# Single entries from the list:
# In PBM E-score, CTTGTAAC shows 0.215
# In PBM E-score, ACTCGAGA shows 0.0599
# In PBM E-score, CGGAGGTA shows 0.077
# In PBM E-score, TCCGTCGA shows 0.176
# In PBM E-score, ACCACCAG shows -0.125
# In PBM E-score, AATACTTA shows 0.0866

# (continued)

row,Sequence,PBM E-score
1,AATGCAAC,-0.0471
2,CTTTTGGC,-0.00015
3,TAATTCGA,-0.0329
4,ATACTTAA,0.176
5,CTGACATC,0.0723
6,ATTTCAGC,-0.0432
7,CGACCGCA,0.0113
8,AATGACTA,-0.131
9,AAGATGAT,0.00521
10,ATGTGGGG,-0.307
11,AGCTGTAG,-0.00512
12,GGTAGAAC,-0.209
13,GCCCCCAA,-0.337
14,ACATTGGT,-0.0959
15,ACTATAAG,0.0112
16,GAGGTGGC,-0.329
17,CAAAGAGG,-0.147
18,GATTCATA,-0.0189
19,AATCGACT,-0.154
20,CAATAGCC,-0.187
21,CTAGGAGC,-0.114
22,TGGTTCAA,0.116
23,CCTCGCTC,0.192
24,ACGTGACT,-0.16
25,CCTAGCAA,-0.102

row,Sequence,PBM E-score
1,GACACGAC,-0.166
2,CTCCTATA,-0.227
3,ATCATATA,0.164
4,CCACAATC,-0.0716
5,CGTGCCTC,0.0262
6,AGTCCGGC,0.289
7,GAACTGAA,0.127
8,GCACTTAC,-0.169
9,TAAGGACA,0.0402
10,ACATAGAG,-0.206
11,CAGGAAGA,-0.00591
12,ACGTCTGA,0.118
13,ACAATGCT,-0.0491
14,CTGACACC,0.057
15,ACGGACCA,0.327
16,TGGATTAA,-0.0195
17,AGCCGAAA,0.364
18,CTCCCGTA,-0.158
19,CGCTGACA,0.0243
20,GGCTTGCA,0.0295
21,GTGCTAAC,0.135
22,AATTTACC,0.0679
23,GAAAGAAA,0.222
24,CAGTGACC,-0.294
25,CCTGCAAA,-0.261

row,Sequence,PBM E-score
1,GCTACTGA,-0.0406
2,AACGGTAA,0.0584
3,ACTCCCGA,0.0654
4,GTAGGGTA,-0.0746
5,GTAAGCAC,-0.0693
6,TACAAGAA,0.15
7,CCGGGCTA,0.137
8,CTAGTCAC,-0.252
9,CAGGGTAG,-0.257
10,AGTCTACG,-0.288
11,AGCAACAC,0.0607
12,GGTCCACC,-0.103
13,AGCTATCA,0.0965
14,GTCCAGAC,-0.323
15,CTAAGGCA,-0.0165
16,ACACGCGC,-0.0213
17,AATCGTAG,0.00492
18,CGTCCCAC,-0.148
19,CTCGAATA,-0.102
20,GAGTTGCA,0.0414
21,CCGCACAA,-0.0801
22,ATGCACCG,0.035
23,AAAGAATT,0.105
24,CTGCCCAA,-0.173
25,CACAGGTG,-0.225

row,Sequence,PBM E-score
1,GTTGACAA,0.145
2,AACTACCC,-0.156
3,ATACGTGC,-0.00198
4,AAGGTAGA,-0.0978
5,AGATTTAA,0.0597
6,CAACCATG,-0.0968
7,CCGCGGCA,0.409
8,AGCTTGAG,-0.0678
9,GTGGCTCA,-0.222
10,ATCTCCAG,-0.0032
11,CGCTTCCC,-0.0762
12,TAGTAGCA,-0.0252
13,AAAATCTG,0.168
14,AAAGCACC,-0.104
15,CGTATGAG,-0.00255
16,ATCTGTGA,0.119
17,GATGGGCA,-0.106
18,CAAGTCAA,-0.0933
19,TAATGCTA,0.107

# Reprinted at random: 4 records from the list, in no set order.
row,Sequence,PBM E-score
2,AACTACCC,-0.156
5,AGATTTAA,0.0597
4,AAGGTAGA,-0.0978
7,CCGCGGCA,0.409
